The record followed here is ChEMBL document CHEMBL4184204, “Fusarithioamide B, a new benzamide derivative from the endophytic fungus Fusarium chlamydosporium with potent cytotoxic and antimicrobial activities” (Bioorg Med Chem, 2018).

Common to all, as to assay type: functional
One assay has as its system Escherichia coli. Kind of assay: Antibacterial activity against Escherichia coli AUMC B-53 by microdilution method.
The subject of another assay is Pseudomonas aeruginosa. The assay can be described thus: Antibacterial activity against Pseudomonas aeruginosa AUMC B-73 by microdilution method.
Another assay has as its system Staphylococcus aureus. Kind of assay: Antibacterial activity against Staphylococcus aureus AUMC B-54 by microdilution method. On the technique in general: Broth dilution looks for growth in wells or tubes with falling amounts of substance.

Molecules are shown by their SMILES. Converted amounts (≈) assume the structure as drawn.

As for `O=C(O)c1cn(C2CC2)c2cc(N3CCNCC3)c(F)cc2c1=O` [CIPROFLOXACIN], the MIC with Escherichia coli is 3.9 µg/mL (≈ 11.8 µM); against Pseudomonas aeruginosa it was 6.1 µg/mL (≈ 18.4 µM); against Staphylococcus aureus it was 3.4 µg/mL (≈ 10.3 µM).

The MIC is the smallest concentration in the dilution series that meets the test's criterion for growth inhibition.
